At least one read-out could not be matched to a standard name with certainty. Some compounds share one range, which may span the group rather than tell each member.
What was measured:
[1] = tested on: mixed culture of green algae; assay: Test for algicidal activity; type: cell-based; conditions: 20 ppm; 1 week
[2] = tested on: Podosphaera leucotricha (apple); assay: Fungicidal test against foliar disease F (foliage spray plus soil drench); type: in vivo; conditions: 100 ppm spray and drench; 7 days
[3] = tested on: Botrytis cinerea (chocolate spot of beans); assay: Fungicidal test against foliar disease H (foliage spray plus soil drench); type: in vivo; conditions: 100 ppm spray and drench; 3 days
Erwinia amylovora = assay: Antibacterial agar test (B10); type: cell-based; conditions: 50 ppm; 5 days
Fusarium caeruleum = assay: Antifungal agar test (F12); type: cell-based; conditions: 50 ppm; 6 days
[4] = tested on: Venturia inaequalis (apple); assay: Fungicidal test against foliar disease G (foliage spray plus soil drench); type: in vivo; conditions: 25 ppm; 21 days
Method: This Example illustrates the fungicidal properties of compounds used as active ingredients in the compositions of the invention. The compounds were tested against a wide variety of foliar fungal diseases of plants. In the test, a composition comprising an aqueous solution or suspension of the test compound was sprayed on to the foliage or uninfected plants; the soil in which the plants were growing was also drenched with the composition. The compositions used for spraying and drencing contained 100 parts per million (ppm.) of the test compound except where otherwise stated in the table of results below. After spraying and drenching, the plants were then exposed to infection with the diseases it was desired to control, along with control plants not treated with the compound. After a period of days, depending upon the particular disease, the extent of the disease was visually assessed, as a percentage of the disease established upon the control plants which had not been treated with the compound under test, according to the grading scheme below
In Table 2 below the names of the disease is given in the first column, and in the second column is given the time which elapsed between exposing the plants to infection and assessing the amount of disease.

[5] = tested on: Pseudomonas mors-prunorum; assay: Antibacterial agar test (B8); type: cell-based; conditions: 50 ppm; 5 days
Pseudomonas phaseolicola = assay: Antibacterial agar test (B9); type: cell-based; conditions: 50 ppm; 5 days
Nigrospora sphaerica = assay: Antifungal agar test (F1); type: cell-based; conditions: 50 ppm; 6 days
[6] = tested on: Phytophthora eitrophthora; assay: Antifungal agar test (F2); type: cell-based; conditions: 50 ppm; 6 days
Alternaria citri = assay: Antifungal agar test (F3); type: cell-based; conditions: 50 ppm; 6 days
Diplodia natalensis = assay: Antifungal agar test (F4); type: cell-based; conditions: 50 ppm; 6 days
Phomopsis citri = assay: Antifungal agar test (F5); type: cell-based; conditions: 50 ppm; 6 days
Ceratosystis paradoxa = assay: Antifungal agar test (F6); type: cell-based; conditions: 50 ppm; 6 days
Gloeosporium musarum = assay: Antifungal agar test (F7); type: cell-based; conditions: 50 ppm; 6 days
Penicillium digitatum = assay: Antifungal agar test (F8); type: cell-based; conditions: 50 ppm; 6 days
Phoma exigua = assay: Antifungal agar test (F9); type: cell-based; conditions: 50 ppm; 6 days
Botrytis tulipae = assay: Antifungal agar test (F10); type: cell-based; conditions: 50 ppm; 6 days
Botrodiplodia theobromae = assay: Antifungal agar test (F11); type: cell-based; conditions: 50 ppm; 6 days

Fc1ccc(Nc2c(Cl)c(F)nc(F)c2Cl)cc1 [Compound 4, 3,5-Dichloro-2,6-difluoro-4(p-fluoroanilino)pyridine] was tested, and the Algal growth grading [1] was 3 (0 to 5).

In the case of O=[N+]([O-])c1ccc(Nc2c(Cl)c(F)nc(F)c2Cl)c(C(F)(F)F)c1 [Compound 5], the “Amount of disease grading, disease F” value [2] was 3 (0 to 5) and the Algal growth grading [1] was 3 (0 to 5).

O=[N+]([O-])c1ccc(Nc2c(Cl)c(F)nc(F)c2Cl)cc1 [Compound 14, 3,5-Dichloro-2,6-difluoro-4(4-nitroanilino)pyridine] was tested, and the Algal growth grading [1] was 3 (0 to 5).

In the case of Fc1nc(F)c(Cl)c(Nc2cccc(C(F)(F)F)c2)c1Cl [Compound 17, 3,5-Dichloro-2,6-difluoro-4(3-trifluoromethylanilino)pyridine], the “Amount of disease grading, disease H” value [3] was 3 (0 to 5) and the Algal growth grading [1] was 2 (6 to 25).

N#Cc1c(F)c(F)c(Nc2c(Cl)c(F)nc(F)c2Cl)c(F)c1F [Compound 19, 4(4-Cyano-2,3,5,6-tetrafluoroanilino)-3,5-dichloro-2,6-difluoropyridine] was tested, and the “Antibacterial activity grading B10” value (Erwinia amylovora) was 3 (0 to 5) and the “Antifungal activity grading F12” value (Fusarium caeruleum) was 3 (0 to 5).

Fc1nc(F)c(Cl)c(Nc2c(F)c(F)c(F)c3c(F)c(F)c(F)c(F)c23)c1Cl [Compound 20, 3,5-Dichloro-2,6-difluoro-4(1-heptafluoronaphthylamino)pyridine] was tested, and the “Antibacterial activity grading B10” value (Erwinia amylovora) was 0 (61 to 100).

With COc1nc(F)c(Cl)c(Nc2c(F)c(F)c(C#N)c(F)c2F)c1Cl [Compound 21, 2-Fluoro-3,5-dichloro-6methoxy-4(4-cyano-2,3,5,6-tetrafluoroanilino)pyridine] the “Antibacterial activity grading B10” value (Erwinia amylovora) was 3 (0 to 5).

O=[N+]([O-])c1cc(Cl)c(Nc2c(Cl)c(F)nc(F)c2Cl)cc1Cl [Compound 24, 3,5-Dichloro-2,6-difluoro-4(2,5-dichloro-4nitro-anilino)pyridine] was tested, and the “Antibacterial activity grading B10” value (Erwinia amylovora) was 2 (6 to 25) and the “Antifungal activity grading F12” value (Fusarium caeruleum) was 3 (0 to 5).

In the case of N#Cc1cc([N+](=O)[O-])ccc1Nc1c(Cl)c(F)nc(F)c1Cl [Compound 26, 4(2-Cyano-4-nitroanilino)-3,5-dichloro-2,6-difluoropyridine], the “Amount of disease grading, disease F (Table 4)” value (“Amount … disease F (Table 4)” for short) [2] was 3 (0 to 5), the “Amount of disease grading, disease G* (Table 4)” value (shortened to “Amount … disease G* (Table 4)”) [4] was 3 (0 to 5) and the “Amount of disease grading, disease H (Table 4)” value (“Amount … disease H (Table 4)” below) [3] was 1 (26 to 60).

For O=[N+]([O-])c1ccc(Nc2c(F)c(F)nc(F)c2F)c(C(F)(F)F)c1 [Compound 28, 4-(4-Nitro-2-trifluoromethylanilino)-tetrafluoropyridine], the “Amount … disease F (Table 4)” value [2] was 3 (0 to 5) and the “Amount … disease G* (Table 4)” value [4] was 3 (0 to 5).

In the case of O=[N+]([O-])c1ccc(Nc2c(F)c(F)nc(F)c2Cl)c(C(F)(F)F)c1 [Compound 32, 3-Chloro-4(4-nitro-2-trifluoromethylanilino)-2,5,6-trifluoropyridine], the “Amount … disease F (Table 4)” value [2] was 3 (0 to 5).

In the case of N#Cc1c(F)c(F)c(Nc2c(Cl)c(F)nc(F)c2Cl)c(F)c1C#N [Compound 33, 3,5-Dichloro-4(3,4-dicyano-2,5,6-trifluoroanilino) 2,6-difluoropyridine], the “Antibacterial activity grading B10” value (Erwinia amylovora) was 3 (0 to 5) and the “Antifungal activity grading F12” value (Fusarium caeruleum) was 3 (0 to 5).

For O=[N+]([O-])c1ccc(Nc2c(Cl)c(F)nc(F)c2Cl)cc1C(F)(F)F [Compound 36, 3,5-Dichloro-2,6-difluoro-4(4-nitro-3-trifluoromethylanilino) pyridine], the “Amount … disease F (Table 4)” value [2] was 2 (6 to 25), the “Amount … disease G* (Table 4)” value [4] was 0 (61 to 100) and the “Amount … disease H (Table 4)” value [3] was 0 (61 to 100).

For O=[N+]([O-])c1ccc(Nc2c(Cl)c(Cl)nc(Cl)c2Cl)c(C(F)(F)F)c1 [Compound 41, 4(4-Nitro-2-trifluoromethylanilino)-tetrachloropyridine], the “Amount … disease F (Table 4)” value [2] was 3 (0 to 5), the “Amount … disease G* (Table 4)” value [4] was 3 (0 to 5) and the “Amount … disease H (Table 4)” value [3] was 3 (0 to 5). For the same compound, the “Antibacterial activity grading B8” value [5] was 0 (61 to 100), the “Antibacterial activity grading B9” value (Pseudomonas phaseolicola) was 3 (0 to 5) and the “Antibacterial activity grading B10” value (Erwinia amylovora) was 2 (6 to 25). For the same compound, the “Antifungal activity grading F1” value (Nigrospora sphaerica) was 3 (0 to 5), the “Antifungal activity grading F2” value [6] was 3 (0 to 5) and the “Antifungal activity grading F3” value (Alternaria citri) was 3 (0 to 5). The “Antifungal activity grading F4” value (Diplodia natalensis) was 3 (0 to 5), the “Antifungal activity grading F5” value (Phomopsis citri) was 3 (0 to 5) and the “Antifungal activity grading F6” value (Ceratosystis paradoxa) was 3 (0 to 5). For the same compound, the “Antifungal activity grading F7” value (Gloeosporium musarum) was 3 (0 to 5), the “Antifungal activity grading F8” value (Penicillium digitatum) was 3 (0 to 5) and the “Antifungal activity grading F9” value (Phoma exigua) was 3 (0 to 5). For the same compound, the “Antifungal activity grading F10” value (Botrytis tulipae) was 3 (0 to 5), the “Antifungal activity grading F11” value (Botrodiplodia theobromae) was 3 (0 to 5) and the “Antifungal activity grading F12” value (Fusarium caeruleum) was 3 (0 to 5).

For O=[N+]([O-])c1ccc(Nc2c(Cl)c(F)nc(Cl)c2Cl)c(C(F)(F)F)c1 [Compound 44, 2-Fluoro-(4-nitro-2-trifluoromethylanilino)3,5,6-trichlorpyridine], the “Antibacterial activity grading B10” value (Erwinia amylovora) was 3 (0 to 5) and the “Antifungal activity grading F12” value (Fusarium caeruleum) was 3 (0 to 5).
